Paper PMC5222588, “Binding of Myomesin to Obscurin-Like-1 at the Muscle M-Band Provides a Strategy for Isoform-Specific Mechanical Protection” (Structure(London, England:1993), 2017)
Results are given in words; binding and its absence hold for the method and conditions named. Some binding calls cover weakened binding; strength is not graded here.

T1: obscurin-like-1 third immunoglobulin domain (OL3) (human) (UniProt O75147)
T1 sequence: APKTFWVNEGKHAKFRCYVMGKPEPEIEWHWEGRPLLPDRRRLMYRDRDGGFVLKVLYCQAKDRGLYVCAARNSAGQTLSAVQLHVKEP


Experiments:
[1] = molecular target: T1, obscurin-like-1 third immunoglobulin domain (OL3) (human); experiment: crystal structure; OL3:My4LMy5 complex at 3.0 mg/mL; 20% PEG8000, 0.1 M Tris-HCl pH 8.5, 0.2 M MgCl2, matrix microseeding; 3.1 Å, space group C2; both purified
[2] = molecular target: T1, obscurin-like-1 third immunoglobulin domain (OL3) (human); experiment: SAXS; 0.5–4.5 mg/mL in 20 mM HEPES pH 7.5, 500 mM NaCl, 1 mM DTT; 18°C; BM29 (ESRF); both purified
[3] = molecular target: myomesin region encompassing the fourth and fifth Fn-III domains (My4LMy5) (human) (UniProt P52179); experiment: crystal structure; OL3:My4LMy5 complex at 3.0 mg/mL; 20% PEG8000, 0.1 M Tris-HCl pH 8.5, 0.2 M MgCl2, matrix microseeding; 3.1 Å, space group C2; both purified

binding [1] | binding [2] | binding [3] | Binder
binds weakly |  |  | obscurin-like-1 third immunoglobulin domain (OL3) (domain or fragment, UniProt O75147 251-339) APKTFWVNEGKHAKFRCYVMGKPEPEIEWHWEGRPLLPDRRRLMYRDRDGGFVLKVLYCQAKDRGLYVCAARNSAGQTLSAVQLHVKEP
binds | binds | binds weakly | myomesin region encompassing the fourth and fifth Fn-III domains (My4LMy5) (domain or fragment, human, myomesin (MYOM1), human, Fn-III domains My4 and My5 with the linker L between them; My4 begins near residue 510 (My4LH is 510-618); My5 is in the crystallised protein but invisible in the electron density; Construct limits are in the Supplemental Experimental Procedures; also called My4L (name of the part visible in the crystal); source: E. coli, co-expressed with GST-OL3 or GST-O3 from a …) PAAPLDVKCLEANKDYIIISWKQPAVDGGSPILGYFIDKCEVGTDSWSQCNDTPVKFARFPVTGLIEGRSYIFRVRAVNKMGIGFPSRVSEPVAALDPAEKARLKSRPSAPWTGQIIVTEEEPSEGIVPGPPTDLSVTEATRSYVVLSWKPPGQRGHEGIMYFVEKCEAGTENWQRVNTELPVKSPRFALFDLAEGKSYCFRVRCSNSAGVGEPSEATEVTVVGDKLDIP
